# Experimental data: PubChem BioAssay AID539 (SRMLSC, 2006)
# The list shows a part of the results.
# Tested on: phosphomevalonate kinase (Streptococcus pneumoniae D39)
# Assay: phosphomevalonate kinase enzyme inhibition – biochemical, mevalonate pathway, pilot trial included, primary screen (AID 539);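 note: 0% = full reaction with DMSO carrier and 100% = background rate without enzyme reaction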
# Settings: purified PMK, PK/LDH-coupled NADH absorbance 340 nm; measured here: pilot screen replicates; at 10 µM; stronger effect = higher value
row,Compound,inhibition
1,COP1(=S)c2c(C)nn(CCC#N)c2N=C(c2ccc(F)cc2)N1C (stereo not given),0.5%
2,O=C(COc1ccccc1)OC1CN2CCC1CC2 (stereo not given),0%
3,CP(=S)(Nn1cnnc1)Oc1ccccc1 (stereo not given),3%
4,Cc1nn(-c2ccccc2)c2c1P(=O)(N1CCOCC1)N(C)C(c1ccccc1)=N2 (stereo not given),0%
5,Cc1ccc(C)c(NP(C)(=O)Oc2ccccc2)c1 (stereo not given),1.5%
6,CCOP1(=S)c2c(C)nn(CCC#N)c2N=C(c2ccccc2F)N1C (stereo not given),1%
7,O=P(Nc1nccs1)(c1ccccc1)c1ccccc1,2.5%
8,CP(=O)(Nc1ccc2c(c1)OCCO2)Oc1ccccc1 (stereo not given),5.5%
9,CN(C)CCOC(=O)C(O)(c1ccccc1)C1CCCCC1 (stereo not given),2.5%
10,CP(=O)(Nc1ccccn1)Oc1ccccc1 (stereo not given),0.5%
